For 28 compounds, survivor count and T/C results are on record in PubChem BioAssay AID248 (DTP/NCI, 2004).

The list does not hold the whole screen: it gathers tests that were run many times, whatever their T/C, doses with no T/C, and many T/C values between a quarter and a half above the control. Further doses and runs are listed elsewhere. T/C gives the treated animals as a percentage of the vehicle group. Some doses have a count of surviving animals in place of a T/C: the source files T/C as zero there, which appears to mark a toxic dose or a test without result, not a measured value. Some survivor counts are full or nearly so, which does not show that the dose was tolerated: the source hardly ever lists a survival T/C far under the control, and the zero likely stands for such cases as well. Survivors were counted at the toxicity check, usually on the fifth day, unless a day is given; later deaths do not show. Schedule codes are those of the source, taken here to give the interval after Q, in days (D) or hours (H), and the number of doses after X. Some doses were run more than once; the values are given in rising order. Some schedules carry Z or #; the key to these is not given. Where survival is the endpoint, the PubChem record calls one and a half times the control and up active, and a quarter to a half above the control has no call in these data; cut-offs in other NCI protocols can differ.

The experiment concerns L1210 leukemia ip in BDF1 mice, survival T/C. Put plainly: NCI In Vivo Anticancer Drug Screen. Data for tumor model L1210 Leukemia (intraperitoneal) in B6D2F1 (BDF1) mice. As to conditions: T/C endpoint: mean survival time, higher T/C = longer survival.
Setting [1] is: dose: 400.0 mg/kg/injection, schedule: Q01DX001 (ip), vehicle: saline with Tween-80.
Where [2] appears, read: dose: 400.0 mg/kg/injection, schedule: Q01DX001 (ip), vehicle: carboxymethylcellulose (CMC).
Where [3] appears, read: dose: 200.0 mg/kg/injection, schedule: Q04DX003 (ip), vehicle: Klucel (hydroxypropylcellulose) (HPC).
The mark [4] stands for this setting: dose: 100.0 mg/kg/injection, schedule: Q04DX003 (ip), vehicle: Klucel (hydroxypropylcellulose) (HPC).
Where [5] appears, read: dose: 400.0 mg/kg/injection, schedule: Q04DX003 (ip), vehicle: Klucel (hydroxypropylcellulose) (HPC).
Where [6] appears, read: dose: 200.0 mg/kg/injection, schedule: Q01DX009 (ip), vehicle: Klucel (hydroxypropylcellulose) (HPC).
Where [7] appears, read: dose: 400.0 mg/kg/injection, schedule: Q04DX003 (ip), vehicle: saline.
The mark [8] stands for this setting: dose: 400.0 mg/kg/injection, schedule: Q04DX003 (ip), vehicle: saline with Tween-80.
Setting [9] is: dose: 100.0 mg/kg/injection, schedule: Q01DX001 (ip), vehicle: carboxymethylcellulose (CMC).
Setting [10] is: dose: 200.0 mg/kg/injection, schedule: Q01DX001 (ip), vehicle: carboxymethylcellulose (CMC).
Setting [11] is: dose: 100.0 mg/kg/injection, schedule: Q01DX009 (ip), vehicle: saline with Tween-80.
The mark [12] stands for this setting: dose: 100.0 mg/kg/injection, schedule: Q04DX003 (ip), vehicle: saline with Tween-80.
[13] abbreviates: dose: 200.0 mg/kg/injection, schedule: Q04DX003 (ip), vehicle: saline with Tween-80.

Consider `Cc1nc(N)[nH]c(=O)c1NC(=O)CCc1ccccc1`, for which the survivor count (dose: 25.0 mg/kg/injection, schedule: Q01DX001 (ip), vehicle: saline with Tween-80) is given as 6 of 6; the survivor count (dose: 50.0 mg/kg/injection, schedule: Q01DX001 (ip), vehicle: saline with Tween-80) is 3 of 6; the survivor count (dose: 100.0 mg/kg/injection, schedule: Q01DX001 (ip), vehicle: saline with Tween-80) is 1 of 6 and 2 of 6; the survivor count (dose: 200.0 mg/kg/injection, schedule: Q01DX001 (ip), vehicle: saline with Tween-80) is listed as 0 of 6; the survivor count under setting [1] is 0 of 6.

Take `Cc1cc(N=[N+]([O-])c2ccc(N)c(C)c2)ccc1N`: for the setting “dose: 100.0 mg/kg/injection, schedule: Q01DX009 (ip), vehicle: saline”, the survivor count is given as 5 of 6.

In the case of `O=c1[nH]c2ccccc2o1`, the survivor count (dose: 100.0 mg/kg/injection, schedule: Q04DX002 (ip), vehicle: saline) is given as 3 of 3.

As to `O=NN(CCCl)C(=O)Nc1ccc2c(c1)-c1ccccc1C2`, the T/C is 128 % of control (dose: 177.0 mg/kg/injection, schedule: Q01DX001 (ip), vehicle: carboxymethylcellulose (CMC), evaluated on day 30); 138 and 145 % of control (dose: 177.0 mg/kg/injection, schedule: Q01DX001 (ip), vehicle: carboxymethylcellulose (CMC), run until all animals had died); 149 % of control (dose: 177.0 mg/kg/injection, schedule: Q01DX009 (ip), vehicle: carboxymethylcellulose (CMC)); 131 % of control (dose: 266.0 mg/kg/injection, schedule: Q01DX001 (ip), vehicle: carboxymethylcellulose (CMC), evaluated on day 30); 125 and 134 % of control (dose: 266.0 mg/kg/injection, schedule: Q01DX001 (ip), vehicle: carboxymethylcellulose (CMC), run until all animals had died); 133 % of control (dose: 266.0 mg/kg/injection, schedule: Q01DX009 (ip), vehicle: carboxymethylcellulose (CMC)). Besides, the T/C reads like this: under setting [2], 129 % of control; (dose: 600.0 mg/kg/injection, schedule: Q01DX001 (ip), vehicle: carboxymethylcellulose (CMC)) 134 % of control.

With `Cc1cc(=O)n(CC(=O)O)c2ccccc12`, the survivor count under setting [3] is on record as 6 of 6.

For `CCN=C(N)c1ccc(NC(=O)c2ccc(C(=O)Nc3ccc(C(N)=NCC)cc3)cc2)cc1`, the survivor count is 6 of 6 (dose: 4.0 mg/kg/injection, schedule: Q01DX Z (ip), vehicle: other); 4 of 6 (dose: 8.0 mg/kg/injection, schedule: Q01DX Z (ip), vehicle: other); 6 of 6 (dose: 16.0 mg/kg/injection, schedule: Q01DX Z (ip), vehicle: carboxymethylcellulose (CMC)); 5 of 6 (dose: 31.0 mg/kg/injection, schedule: Q01DX Z (ip), vehicle: carboxymethylcellulose (CMC)); 0 of 6 and 1 of 6 (dose: 62.0 mg/kg/injection, schedule: Q01DX Z (ip), vehicle: carboxymethylcellulose (CMC)); 0 of 6 (dose: 125.0 mg/kg/injection, schedule: Q01DX Z (ip), vehicle: carboxymethylcellulose (CMC)). The survivor count is listed as 0 of 6 (dose: 250.0 mg/kg/injection, schedule: Q01DX Z (ip), vehicle: carboxymethylcellulose (CMC)) and 0 of 6 (dose: 500.0 mg/kg/injection, schedule: Q01DX Z (ip), vehicle: carboxymethylcellulose (CMC)).

For `O=[N+]([O-])c1ccc(Oc2nc(Cl)nc(Oc3ccc([N+](=O)[O-])cc3)n2)cc1`, the survivor count is, setting by setting: under setting [4], 3 of 3; under setting [3], 3 of 3; under setting [5], 3 of 3.

As to `CCC(=O)OC1(c2ccccc2)CCN(CCC(=O)c2ccccc2)CC1`, the survivor count is, setting by setting: under setting [3], 3 of 6; under setting [5], 0 of 6.

On to `CN(/C(N)=N/[N+](=O)[O-])c1cccnc1`, for which the survivor count reads like this: under setting [6], 0 of 3; (dose: 200.0 mg/kg/injection, schedule: Q04DX002 (ip), vehicle: Klucel (hydroxypropylcellulose) (HPC)) 1 of 3; (dose: 400.0 mg/kg/injection, schedule: Q04DX002 (ip), vehicle: Klucel (hydroxypropylcellulose) (HPC)) 0 of 3.

For `CCC(C)C(CN)(CCCN1CCCCC1)c1cccc2ccccc12` (stereo not given), the survivor count under setting [7] was 4 of 6.

Turning to `COc1ccc(/C=C(/C)[N+](=O)[O-])cc1OC`, the survivor count (dose: 200.0 mg/kg/injection, schedule: Q01DX001 (ip), vehicle: saline) is recorded as 4 of 4.

For the compound `O=S(=O)(F)c1ccc(Cl)cc1`, under setting [8], the survivor count is 0 of 3.

`COC(=O)C(=O)c1c(-c2ccc[n+](Cc3ccccc3)c2)[nH]c2ccccc12`: under “dose: 300.0 mg/kg/injection, schedule: Q01DX001 (ip), vehicle: saline”, the survivor count is on record as 0 of 6.

On to `CC[Si](CC)(c1ccccc1)N1CC1`, for which the survivor count was 2 of 4 and 3 of 4 under setting [9]; 0 of 4 under setting [10]; 0 of 4 under setting [2].

As for `CC(=O)SC(C)CC(=O)O` (stereo not given), the survivor count under setting [7] is reported as 1 of 6.

In the case of `CC(C)(SC(c1ccccc1)(c1ccccc1)c1ccccc1)C(N)C(=O)O` (stereo not given), where the note is “dose: 50.0 mg/kg/injection, schedule: Q01DX009 (ip), vehicle: saline”, the survivor count is given as 5 of 8.

As for `C=CCOC(=O)CCl`, the survivor count was 6 of 6 (dose: 83.0 mg/kg/injection, schedule: Q01DX Z (ip), vehicle: methylcellulose (MC)); 6 of 6 (dose: 125.0 mg/kg/injection, schedule: Q01DX Z (ip), vehicle: methylcellulose (MC)); 0 of 3 under setting [1].

As to `O=C1OC(c2ccc3c(c2)OCO3)C(C(=O)CCl)c2ccccc21` (stereo not given), the survivor count under setting [8] is recorded as 1 of 6.

As to `CC1(O)C=Cc2ccccc21` (stereo not given), under setting [8], the survivor count was 3 of 3.

As to `O=C(NC(=S)Nc1cccc(C(F)(F)F)c1)c1cc([N+](=O)[O-])cc([N+](=O)[O-])c1`, the survivor count is 3 of 3 under setting [11]; 6 of 6 under setting [12]; 6 of 6 under setting [13]; 3 of 6 under setting [1]; 2 of 3 and 4 of 6 (dose: 400.0 mg/kg/injection, schedule: Q01DX009 (ip), vehicle: saline with Tween-80); 1 of 6 under setting [8].

Consider `O=[N+]([O-])c1cc(Br)ccc1O`, for which the survivor count under setting [7] was 1 of 6.

As for `CC(C)(C)c1ccc(CC#N)cc1`, the survivor count runs as follows: under setting [4], 0 of 6; under setting [3], 0 of 6; under setting [5], 0 of 6.

For the compound `C/C(=N/S(=O)(=O)c1ccc(C)cc1)OCCN(C)C`, the survivor count is recorded as 1 of 6 (dose: 12.0 mg/kg/injection, schedule: Q01DX009 (ip), vehicle: saline with Tween-80); 5 of 6 (dose: 12.0 mg/kg/injection, schedule: Q04DX003 (ip), vehicle: saline with Tween-80); 1 of 6 (dose: 25.0 mg/kg/injection, schedule: Q04DX003 (ip), vehicle: saline with Tween-80); 1 of 6 (dose: 50.0 mg/kg/injection, schedule: Q04DX003 (ip), vehicle: saline with Tween-80); 0 of 6 under setting [12]; 0 of 6 under setting [13]. Further, under setting [8], the survivor count was 0 of 6.

Regarding `CC(=O)Nc1nnc(SC(C)=O)s1`, the survivor count under setting [6] was 6 of 6.

With `CCOC(=O)c1ccc(NCC#N)cc1`, the survivor count under setting [11] is recorded as 6 of 6.

For the compound `C=CC[As](C)(=O)O`, for the setting “dose: 400.0 mg/kg/injection, schedule: Q01DX009 (ip), vehicle: saline”, the survivor count is 0 of 6.

`CC(=O)n1c(COS(C)(=O)=O)nc2ccccc21`: the survivor count is on record as 1 of 6 under setting [9], 0 of 6 under setting [10] and 0 of 6 under setting [2].

As for `O=C1[O][Hg][c]2c1cccc2[N+](=O)[O-]`, the survivor count (dose: 40.0 mg/kg/injection, schedule: Q04DX003 (ip), vehicle: Klucel (hydroxypropylcellulose) (HPC)) is on record as 3 of 6.
